Measurements published in patent EP1412028B1, “TETRAHYDROINDOLONE DERIVATIVES LINKED TO ARYLPIPERAZINES” (Spectrum Pharmaceuticals, Inc., priority 2001, dated 2003).
At least one compound was matched to its structure with a doubt left.

Test system: mice
Test: Conditioned avoidance responding (CAR, active avoidance)
Assay type: in vivo
Details: SC 20 minutes before the test session
Description: Training: Consists of 20 trials with variable inter-trial intervals (Trained to 80% Avoidance Criteria). After a one-minute acclimation period, the house light and an acoustic 90dB tone (conditioned stimuli) are presented. A response (crossing to dark compartment) within 5 seconds ends the trial and trial is recorded as avoidance response (CAR). […] To avoid shock, animals learn to move from the lighted side of the chamber to the dark side when the cue is presented (avoidance) or moved when the shock is administered (escape).Testing: Vehicle or test compounds are administered S.C. 20 minutes before the test session. (Checking for disruption of cognition and attention) Table 3. Conditioned Avoidance Responding

CN1CCN(C2=Nc3cc(Cl)ccc3Nc3ccccc32)CC1 [Clozapine, clozapine, reference compound]
Conditioned Avoidance Responding, effect on avoidance: Significant reduction in avoidance | Conditioned Avoidance Responding, effect on latency: Significant increase in latency
